Experimental data published in publication doi:10.1101/2023.05.05.539527.
No constants are given. Whether binding was seen depends on the method and setting. In cells and extracts the contact can be indirect. Some results given as binding are weak or reduced against the parent protein; the word gives no strength.

Chains of the proteins cited; added tags and fusions are not shown.
UniProt Q15154: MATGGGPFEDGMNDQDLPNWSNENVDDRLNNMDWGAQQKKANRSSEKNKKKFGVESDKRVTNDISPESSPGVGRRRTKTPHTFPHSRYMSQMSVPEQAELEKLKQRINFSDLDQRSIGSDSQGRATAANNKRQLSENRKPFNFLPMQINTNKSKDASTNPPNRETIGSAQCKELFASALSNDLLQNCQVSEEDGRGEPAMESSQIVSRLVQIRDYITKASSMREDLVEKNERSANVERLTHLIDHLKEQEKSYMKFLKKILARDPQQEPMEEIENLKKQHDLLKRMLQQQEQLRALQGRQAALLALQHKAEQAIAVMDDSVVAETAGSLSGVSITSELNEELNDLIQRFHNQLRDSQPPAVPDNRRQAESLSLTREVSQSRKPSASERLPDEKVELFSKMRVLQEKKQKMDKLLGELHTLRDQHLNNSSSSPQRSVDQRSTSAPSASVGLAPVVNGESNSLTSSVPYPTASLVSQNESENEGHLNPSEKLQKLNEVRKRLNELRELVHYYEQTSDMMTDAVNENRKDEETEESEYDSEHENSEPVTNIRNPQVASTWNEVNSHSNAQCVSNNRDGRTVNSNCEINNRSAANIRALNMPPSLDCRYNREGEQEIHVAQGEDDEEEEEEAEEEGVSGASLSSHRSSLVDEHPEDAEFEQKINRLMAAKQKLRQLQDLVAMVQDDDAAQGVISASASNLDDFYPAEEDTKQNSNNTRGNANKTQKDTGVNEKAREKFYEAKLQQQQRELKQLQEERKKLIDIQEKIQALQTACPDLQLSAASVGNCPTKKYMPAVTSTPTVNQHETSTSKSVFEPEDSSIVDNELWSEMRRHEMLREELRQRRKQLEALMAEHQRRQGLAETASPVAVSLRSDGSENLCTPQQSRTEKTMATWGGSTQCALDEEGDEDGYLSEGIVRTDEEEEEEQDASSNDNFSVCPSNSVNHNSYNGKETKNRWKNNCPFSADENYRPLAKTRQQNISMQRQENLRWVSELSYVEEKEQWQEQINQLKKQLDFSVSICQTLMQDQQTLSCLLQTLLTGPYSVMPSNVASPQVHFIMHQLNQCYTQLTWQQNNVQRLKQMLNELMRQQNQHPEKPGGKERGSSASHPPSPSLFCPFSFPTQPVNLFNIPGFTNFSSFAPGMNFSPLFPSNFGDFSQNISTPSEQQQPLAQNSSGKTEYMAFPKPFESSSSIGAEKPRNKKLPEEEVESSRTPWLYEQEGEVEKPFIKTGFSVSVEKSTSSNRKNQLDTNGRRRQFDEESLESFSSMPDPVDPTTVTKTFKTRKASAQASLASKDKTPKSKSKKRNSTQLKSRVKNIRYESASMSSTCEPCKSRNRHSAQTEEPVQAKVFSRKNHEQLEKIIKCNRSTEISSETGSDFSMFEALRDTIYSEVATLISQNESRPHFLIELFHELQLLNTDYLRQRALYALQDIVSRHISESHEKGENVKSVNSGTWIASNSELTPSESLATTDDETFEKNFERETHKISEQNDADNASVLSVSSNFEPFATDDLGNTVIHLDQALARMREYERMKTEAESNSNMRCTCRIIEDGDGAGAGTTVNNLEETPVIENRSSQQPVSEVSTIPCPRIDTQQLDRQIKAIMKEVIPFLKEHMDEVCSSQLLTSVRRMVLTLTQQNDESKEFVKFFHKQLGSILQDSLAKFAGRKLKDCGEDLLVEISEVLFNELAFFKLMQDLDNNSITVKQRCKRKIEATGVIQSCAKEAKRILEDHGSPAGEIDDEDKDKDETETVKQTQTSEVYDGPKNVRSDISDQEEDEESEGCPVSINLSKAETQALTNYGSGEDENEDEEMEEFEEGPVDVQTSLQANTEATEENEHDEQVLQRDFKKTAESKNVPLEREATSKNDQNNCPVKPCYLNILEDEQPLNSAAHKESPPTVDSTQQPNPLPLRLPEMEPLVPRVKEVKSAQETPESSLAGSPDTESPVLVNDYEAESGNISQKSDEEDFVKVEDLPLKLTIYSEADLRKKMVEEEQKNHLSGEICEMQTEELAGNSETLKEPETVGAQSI
UniProt O15078: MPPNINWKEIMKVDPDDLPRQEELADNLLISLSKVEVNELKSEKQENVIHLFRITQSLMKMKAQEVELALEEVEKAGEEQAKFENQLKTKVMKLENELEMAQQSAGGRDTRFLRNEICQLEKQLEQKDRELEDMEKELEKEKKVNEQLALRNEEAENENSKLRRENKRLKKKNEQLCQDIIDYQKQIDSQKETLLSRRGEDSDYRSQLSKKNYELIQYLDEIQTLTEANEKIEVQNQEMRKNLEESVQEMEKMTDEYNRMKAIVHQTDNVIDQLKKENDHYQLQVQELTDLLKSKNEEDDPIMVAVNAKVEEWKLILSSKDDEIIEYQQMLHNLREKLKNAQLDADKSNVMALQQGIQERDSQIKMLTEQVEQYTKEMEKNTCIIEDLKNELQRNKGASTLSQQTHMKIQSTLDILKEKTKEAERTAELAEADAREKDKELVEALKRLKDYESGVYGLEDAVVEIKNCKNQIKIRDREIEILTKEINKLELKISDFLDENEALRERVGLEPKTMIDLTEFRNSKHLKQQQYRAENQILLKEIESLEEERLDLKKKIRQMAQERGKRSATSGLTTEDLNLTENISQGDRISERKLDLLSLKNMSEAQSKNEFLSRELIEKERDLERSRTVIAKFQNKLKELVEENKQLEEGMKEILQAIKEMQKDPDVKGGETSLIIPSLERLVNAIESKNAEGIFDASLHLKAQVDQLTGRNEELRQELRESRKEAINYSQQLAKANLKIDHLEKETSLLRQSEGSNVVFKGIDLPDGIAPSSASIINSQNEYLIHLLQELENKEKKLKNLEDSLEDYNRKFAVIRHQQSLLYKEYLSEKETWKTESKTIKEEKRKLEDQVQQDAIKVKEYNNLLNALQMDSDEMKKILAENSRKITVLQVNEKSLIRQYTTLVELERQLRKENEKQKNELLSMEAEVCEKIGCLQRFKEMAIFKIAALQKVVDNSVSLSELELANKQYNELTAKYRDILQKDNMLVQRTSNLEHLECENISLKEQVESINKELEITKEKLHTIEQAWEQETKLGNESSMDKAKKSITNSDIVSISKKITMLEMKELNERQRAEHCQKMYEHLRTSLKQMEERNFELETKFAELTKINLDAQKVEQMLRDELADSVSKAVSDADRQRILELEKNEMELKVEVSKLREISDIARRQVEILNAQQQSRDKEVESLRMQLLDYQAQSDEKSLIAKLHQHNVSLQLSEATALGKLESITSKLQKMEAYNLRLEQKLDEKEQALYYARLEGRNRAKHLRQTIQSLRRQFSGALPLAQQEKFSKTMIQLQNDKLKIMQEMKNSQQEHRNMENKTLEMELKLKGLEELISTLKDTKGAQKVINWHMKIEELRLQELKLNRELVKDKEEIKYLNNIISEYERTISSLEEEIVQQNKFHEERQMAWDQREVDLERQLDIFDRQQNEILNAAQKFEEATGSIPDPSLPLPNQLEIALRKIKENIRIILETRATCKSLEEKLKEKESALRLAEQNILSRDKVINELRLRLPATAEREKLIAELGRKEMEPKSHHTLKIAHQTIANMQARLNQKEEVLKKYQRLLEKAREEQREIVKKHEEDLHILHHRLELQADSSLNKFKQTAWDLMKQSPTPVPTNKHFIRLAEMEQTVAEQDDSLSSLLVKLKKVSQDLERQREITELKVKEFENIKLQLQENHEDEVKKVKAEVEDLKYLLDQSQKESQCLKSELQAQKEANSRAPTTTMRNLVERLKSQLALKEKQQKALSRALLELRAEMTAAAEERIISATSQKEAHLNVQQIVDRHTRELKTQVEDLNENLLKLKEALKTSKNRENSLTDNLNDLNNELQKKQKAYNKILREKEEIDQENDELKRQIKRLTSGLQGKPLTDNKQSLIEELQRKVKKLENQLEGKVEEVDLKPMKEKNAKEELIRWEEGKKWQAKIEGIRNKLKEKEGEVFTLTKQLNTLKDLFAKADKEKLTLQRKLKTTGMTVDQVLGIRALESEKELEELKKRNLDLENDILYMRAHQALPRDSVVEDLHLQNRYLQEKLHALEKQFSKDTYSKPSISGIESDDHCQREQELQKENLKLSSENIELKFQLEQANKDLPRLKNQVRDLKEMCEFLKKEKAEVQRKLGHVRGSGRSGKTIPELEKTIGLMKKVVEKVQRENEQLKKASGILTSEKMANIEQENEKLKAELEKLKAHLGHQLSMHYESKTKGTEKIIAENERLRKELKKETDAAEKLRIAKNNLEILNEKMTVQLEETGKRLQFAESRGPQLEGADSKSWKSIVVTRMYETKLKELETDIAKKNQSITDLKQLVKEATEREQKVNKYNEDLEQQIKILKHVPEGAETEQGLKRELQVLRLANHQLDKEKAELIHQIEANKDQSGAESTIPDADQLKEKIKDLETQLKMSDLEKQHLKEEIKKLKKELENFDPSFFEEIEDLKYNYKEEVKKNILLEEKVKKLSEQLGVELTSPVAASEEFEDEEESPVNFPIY

B1: CEP131 (protein, UniProt Q9UPN4 1-1083)
chain: MKGTRAIGSVPERSPAGVDLSLTGLPPPVSRRPGSAATTKPIVRSVSVVTGSEQKRKVLEATGPGGSQAINNLRRSNSTTQVSQPRSGSPRPTEPTDFLMLFEGSPSGKKRPASLSTAPSEKGATWNVLDDQPRGFTLPSNARSSSALDSPAGPRRKECTVALAPNFTANNRSNKGAVGNCVTTMVHNRYTPSERAPPLKSSNQTAPSLNNIIKAATCEGSESSGFGKLPKNVSSATHSARNNTGGSTGLPRRKEVTEEEAERFIHQVNQATVTIQRWYRHQVQRRGAGAARLEHLLQAKREEQRQRSGEGTLLDLHQQKEAARRKAREEKARQARRAAIQELQQKRALRAQKASTAERGPPENPRETRVPGMRQPAQELSPTPGGTAHQALKANNTGGGLPAAGPGDRCLPTSDSSPEPQQPPEDRTQDVLAQDAAGDNLEMMAPSRGSAKSRGPLEELLHTLQLLEKEPDVLPRPRTHHRGRYAWASEVTTEDDASSLTADNLEKFGKLSAFPEPPEDGTLLSEAKLQSIMSFLDEMEKSGQDQLDSQQEGWVPEAGPGPLELGSEVSTSVMRLKLEVEEKKQAMLLLQRALAQQRDLTARRVKETEKALSRQLQRQREHYEATIQRHLAFIDQLIEDKKVLSEKCEAVVAELKQEDQRCTERVAQAQAQHELEIKKLKELMSATEKARREKWISEKTKKIKEVTVRGLEPEIQKLIARHKQEVRRLKSLHEAELLQSDERASQRCLRQAEELREQLEREKEALGQQERERARQRFQQHLEQEQWALQQQRQRLYSEVAEERERLGQQAARQRAELEELRQQLEESSSALTRALRAEFEKGREEQERRHQMELNTLKQQLELERQAWEAGRTRKEEAWLLNREQELREEIRKGRDKEIELVIHRLEADMALAKEESEKAAESRIKRLRDKYEAELSELEQSERKLQERCSELKGQLGEAEGENLRLQGLVRQKERALEDAQAVNEQLSSERSNLAQVIRQEFEDRLAASEEETRQAKAELATLQARQQLELEEVHRRVKTALARKEEAVSSLRTQHEAAVKRADHLEELLEQHRRPTPSTK

Biological target: Pericentriolar Material 1 (PCM1) protein (human (endogenous in Jurkat)) (UniProt Q15154)
Experiment: co-IP

| Molecule | binding |
| --- | --- |
| CEP290 (from UniProt O15078 1-2479) | binds |
| B1 | binds |
